Measurements as given in US20210310040A1, “SUSCEPTIBILITY AND RESISTANCE OF MICROORGANISMS” (priority 2017, published 2021).
In brackets after ≈: the same amount, converted by molar mass.

Legend:
E. coli AR 84 (ESBL) = experiment: Susceptibility by perturbation of VOCs, single indicator response after addition of antibiotic; format: cell-based; conditions: Escherichia coli, 3 h; 5×10^5 CFU/ml; observed in under three hours, FIG. 51
Excerpt: (§1) However, it has been discovered that detection of changes in VOC output of microorganism—in addition to changes in the number of microorganisms—can be detected by the sensor 808 after application of antibiotics. The change in the sensor 808 response can also be correlated to susceptibility of the microorganism to antibiotics. For instance, it has been discovered that after application of antibiotics, certain sensors decrease or show less response at certain concentrations. This change in VOC output can be correlated to the resistance or susceptibility of the microorganisms in the sample to the antibiotic or other substance introduced. In other examples, a change in compound output that remain in solution (not limited to VOCs) may be correlated to a susceptibility of the microorganisms.
In the resistant strain illustrated in FIG. 48, AR 84 (ESBL), the antibiotic is added at the same time, but the red component of the sensor response continues to increase over time. […] Accordingly, in this embodiment, the sensor 808 response of a single indicator may be monitored. Changes in the slope of the indicator response over time, or decreases in the indicator may be monitored to determine when there is potentially a susceptible organism. […]

S. aureus 29213 (MSSA) = experiment: Susceptibility by perturbation of VOCs, single indicator response with antibiotic; format: cell-based; conditions: Staphylococcus aureus, 2.5 h
Excerpt: as §1
FIG. 52 illustrates two graphs showing the MIC observed for two different antibiotics to S. aureus 29213 (MSSA). The graph on the left portion of FIG. 52 illustrates a MIC of 1 μg/ml to Cefoxitin and the graph on the right illustrations a MIC of 0.5 μg/ml of Vancomycin.

Row | MIC (E. coli AR 84 (ESBL)) | Compound | MIC (S. aureus 29213 (MSSA))
1 | 64 µg/mL (≈ 183 µM) | CC1(C)S[C@@H]2[C@H](NC(=O)[C@H](N)c3ccccc3)C(=O)N2[C@H]1C(=O)O [Ampicillin] | –
2 | – | CN[C@H](CC(C)C)C(=O)N[C@H]1C(=O)N[C@@H](CC(N)=O)C(=O)N[C@H]2C(=O)N[C@H]3C(=O)N[C@H](C(=O)N[C@H](C(=O)O)c4cc(O)cc(O)c4-c4cc3ccc4O)[C@H](O)c3ccc(c(Cl)c3)Oc3cc2cc(c3O[C@@H]2O[C@H](CO)[C@@H](O)[C@H](O)[C@H]2O[C@H]2C[C@](C)(N)[C@H](O)[C@H](C)O2)Oc2ccc(cc2Cl)[C@H]1O [Vancomycin] | 0.5 µg/mL (≈ 0.345 µM)
